Reference: patent US20190367589A1
Results are given in words; binding and its absence hold for the method and conditions named. Some entries that bind do so weakly or less than the wild type.

Sequences of proteins named here, by UniProt entry; tags and fusion partners are left off. Residues count along the entry.
UniProt Q9Y219, residues 27-1080: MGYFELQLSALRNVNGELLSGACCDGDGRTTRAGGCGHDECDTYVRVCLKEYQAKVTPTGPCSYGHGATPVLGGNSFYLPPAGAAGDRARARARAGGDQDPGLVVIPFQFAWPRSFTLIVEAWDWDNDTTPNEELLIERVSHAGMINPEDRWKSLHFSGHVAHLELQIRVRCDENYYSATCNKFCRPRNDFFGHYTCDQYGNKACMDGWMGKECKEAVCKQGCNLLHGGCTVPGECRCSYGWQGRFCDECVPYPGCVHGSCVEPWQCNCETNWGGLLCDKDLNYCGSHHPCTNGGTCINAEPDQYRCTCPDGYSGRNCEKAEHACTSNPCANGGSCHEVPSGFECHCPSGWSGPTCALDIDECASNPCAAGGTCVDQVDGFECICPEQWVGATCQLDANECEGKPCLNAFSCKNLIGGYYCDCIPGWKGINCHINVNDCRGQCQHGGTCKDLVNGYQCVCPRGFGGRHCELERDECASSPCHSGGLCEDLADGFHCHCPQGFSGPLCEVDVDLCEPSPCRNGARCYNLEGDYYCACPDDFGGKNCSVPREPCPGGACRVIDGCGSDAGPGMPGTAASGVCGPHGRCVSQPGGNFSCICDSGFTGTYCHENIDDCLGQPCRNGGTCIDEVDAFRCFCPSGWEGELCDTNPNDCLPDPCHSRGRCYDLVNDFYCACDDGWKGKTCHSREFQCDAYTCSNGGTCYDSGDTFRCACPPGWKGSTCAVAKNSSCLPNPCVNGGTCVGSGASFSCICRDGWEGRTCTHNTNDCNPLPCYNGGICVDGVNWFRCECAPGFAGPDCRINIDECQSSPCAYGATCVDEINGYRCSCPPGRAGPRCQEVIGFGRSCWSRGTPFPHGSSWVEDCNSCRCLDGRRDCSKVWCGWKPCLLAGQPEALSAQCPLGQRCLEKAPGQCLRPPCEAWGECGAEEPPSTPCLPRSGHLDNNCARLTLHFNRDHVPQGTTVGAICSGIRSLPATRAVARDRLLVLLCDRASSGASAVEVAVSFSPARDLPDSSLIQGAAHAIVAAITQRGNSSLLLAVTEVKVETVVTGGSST
UniProt P78504, residues 34-1067: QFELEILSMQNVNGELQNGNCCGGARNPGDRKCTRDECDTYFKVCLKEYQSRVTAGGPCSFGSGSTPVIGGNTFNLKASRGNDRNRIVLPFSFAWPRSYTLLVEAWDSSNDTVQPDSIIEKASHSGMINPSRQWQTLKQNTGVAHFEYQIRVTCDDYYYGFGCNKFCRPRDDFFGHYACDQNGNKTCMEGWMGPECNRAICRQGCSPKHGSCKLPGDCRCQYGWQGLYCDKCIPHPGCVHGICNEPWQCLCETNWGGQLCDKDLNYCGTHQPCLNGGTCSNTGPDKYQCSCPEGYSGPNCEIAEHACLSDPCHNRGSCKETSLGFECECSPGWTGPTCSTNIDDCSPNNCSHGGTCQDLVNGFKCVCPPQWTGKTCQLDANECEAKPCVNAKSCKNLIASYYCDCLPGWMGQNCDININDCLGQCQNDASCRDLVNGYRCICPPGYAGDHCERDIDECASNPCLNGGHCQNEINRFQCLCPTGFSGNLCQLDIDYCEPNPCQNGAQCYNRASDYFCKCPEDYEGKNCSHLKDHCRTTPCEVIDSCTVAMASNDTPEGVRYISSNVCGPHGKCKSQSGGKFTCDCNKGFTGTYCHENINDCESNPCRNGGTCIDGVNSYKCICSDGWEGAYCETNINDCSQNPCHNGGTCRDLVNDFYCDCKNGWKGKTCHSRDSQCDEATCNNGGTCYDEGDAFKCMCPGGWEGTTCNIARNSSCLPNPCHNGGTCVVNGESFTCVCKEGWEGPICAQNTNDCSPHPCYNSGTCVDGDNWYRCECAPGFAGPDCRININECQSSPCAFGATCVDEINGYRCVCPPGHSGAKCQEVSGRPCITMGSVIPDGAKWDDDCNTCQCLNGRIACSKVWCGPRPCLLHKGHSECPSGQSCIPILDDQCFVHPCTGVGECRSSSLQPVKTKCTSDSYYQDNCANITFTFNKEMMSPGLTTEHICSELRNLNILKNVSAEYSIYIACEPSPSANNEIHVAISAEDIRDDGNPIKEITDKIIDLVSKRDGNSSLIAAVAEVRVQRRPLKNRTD
UniProt Q63722, residues 34-1067: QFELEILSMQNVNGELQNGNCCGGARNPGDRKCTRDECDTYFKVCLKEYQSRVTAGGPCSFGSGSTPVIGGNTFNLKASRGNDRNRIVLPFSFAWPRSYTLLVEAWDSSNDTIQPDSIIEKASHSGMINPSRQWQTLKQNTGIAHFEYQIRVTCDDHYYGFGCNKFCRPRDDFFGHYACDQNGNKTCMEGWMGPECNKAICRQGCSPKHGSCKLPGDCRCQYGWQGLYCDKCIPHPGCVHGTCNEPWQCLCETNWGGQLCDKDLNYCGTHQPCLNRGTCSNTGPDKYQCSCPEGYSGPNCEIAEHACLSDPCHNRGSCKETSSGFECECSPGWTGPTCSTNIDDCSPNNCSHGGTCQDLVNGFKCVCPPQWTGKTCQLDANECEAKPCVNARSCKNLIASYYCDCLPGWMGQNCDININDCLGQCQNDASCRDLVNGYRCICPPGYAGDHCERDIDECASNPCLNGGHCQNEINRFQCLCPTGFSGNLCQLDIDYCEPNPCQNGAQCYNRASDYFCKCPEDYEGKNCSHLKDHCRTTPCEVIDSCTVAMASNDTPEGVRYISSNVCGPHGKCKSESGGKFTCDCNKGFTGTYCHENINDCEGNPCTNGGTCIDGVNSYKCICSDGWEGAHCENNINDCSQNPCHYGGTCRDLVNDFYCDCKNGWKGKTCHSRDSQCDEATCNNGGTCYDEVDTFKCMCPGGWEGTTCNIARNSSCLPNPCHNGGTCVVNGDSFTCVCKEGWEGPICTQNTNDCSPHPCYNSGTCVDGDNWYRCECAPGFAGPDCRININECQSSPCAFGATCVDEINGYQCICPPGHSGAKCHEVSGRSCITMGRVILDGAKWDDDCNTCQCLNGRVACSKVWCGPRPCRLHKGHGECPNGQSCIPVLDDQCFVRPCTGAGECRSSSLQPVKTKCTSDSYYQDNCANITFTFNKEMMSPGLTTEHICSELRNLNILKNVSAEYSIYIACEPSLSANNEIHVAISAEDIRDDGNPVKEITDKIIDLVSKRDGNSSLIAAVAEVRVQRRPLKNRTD

B1: anti-Jagged 13 IgG (antibody, V domains shown)
VH: EVQLLESGGGLVQPGGSLRLSCAASGFTFSSYAMSWVRQAPGKGLEWVSSIETQGPTTLYADSVKGRFTISRDNSKNTLYLQMNSLRAEDTAVYYCAKTSSAFDYWGQGTLVTVSS
VL: DIQMTQSPSSLSASVGDRVTITCRASQSISSYLNWYQQKPGKAPKLLIYASSLQSGVPSRFSGSGSGTDFTLTIGSLQPEDFATYYCQQNVATPLTFGQGTKVEIKR
B2: anti-Jagged 32 IgG (antibody, V domains shown)
VH: EVQLLESGGGLVQPGGSLRLSCAASGFTFSSYAMSWVRQAPGKGLEWVSSIEQMGWQTYYADSVKGRFTISRDNSKNTLYLQMNSLRAEDTAVYYCAKSAAAFDYWGQGTLVTVSS
VL: DIQMTQSPSSLSASVGDRVTITCRASQSISSYLNWYQQKPGKAPKLLIYAASLQSGVPSRFSGSGSGTDFTLTISSLQPEDFATYYCQQTVVAPLTFGQGTKVEIKR
B3: ScFv Jagged 2 (scFv)
scFv: EVQLLESGGGLVQPGGSLRLSCAASGFTFSSYAMSWVRQAPGKGLEWVSAIAELGALTQYADSVKGRFTISRDNSKNTLYLQMNSLRAEDTAVYYCARAHTSFDYWGQGTLVTVSSGGGGSGGGGSGGGGSTDIQMTQSPSSLSASVGDRVTITCRASQSISSYLNWYQQKPGKAPKLLIYKASTLSGVPSRFSGSGSGTDFTLTISSLQPEDFATYYCQQAMDQPPTFGQGTKVEIKR
B4: 346.4 (Fab, V domains shown)
VH: EVQLLESGGGLVQPGGSLRLSCAASGFTFSSYAMSWVRQAPGKGLEWVSSIEQMGWQTYYADSVKGRFTISRDNSKNTLYLQMNSLRAEDTAVYYCAKDIGGRSAFDYWGQGTLVTVSS
VL: DIQMTQSPSSLSASVGDRVTITCRASQSISSYLNWYQQKPGKAPKLLIYAASSLQSGVPSRFSGSGSGTDFTLTISSLQPEDFATYYCQQSVVAPLTFGQGTKVEIKR
B5: ScFv Jagged 13 (scFv)
scFv: EVQLLESGGGLVQPGGSLRLSCAASGFTFSSYAMSWVRQAPGKGLEWVSSIETQGPTTLYADSVKGRFTISRDNSKNTLYLQMNSLRAEDTAVYYCAKTSSAFDYWGQGTLVTVSSGGGGSGGGGSGGGGSTDIQMTQSPSSLSASVGDRVTITCRASQSISSYLNWYQQKPGKAPKLLIYASSLQSGVPSRFSGSGSGTDFTLTIGSLQPEDFATYYCQQNVATPLTFGQGTKVEIKR
B6: 346.21 (Fab, V domains shown)
VH: EVQLLESGGGLVQPGGSLRLSCAASGFTFSSYAMSWVRQAPGKGLEWVSSIEQMGWQTYYADSVKGRFTISRDNSKNTLYLQMNSLRAEDTAVYYCAKDIGGRSAFDYWGQGTLVTVSS
VL: DIQMTQSPSSLSASVGDRVTITCRASQSISSYLNWYQQKPGKAPKLLIYAASSLQSGVPSRFSGSGSGTDFTLTISSLQPEDFATYYCQQSVVAPLTFGQGTKVEIKR
B7: 346.26 (Fab, V domains shown)
VH: EVQLLESGGGLVQPGGSLRLSCAASGFTFSSYAMSWVRQAPGKGLEWVSSIEQMGWQTYYADSVKGRFTISRDNSKNTLYLQMNSLRAEDTAVYYCAKDIGGRSAFDYWGQGTLVTVSS
VL: DIQMTQSPSSLSASVGDRVTITCRASQSISSYLNWYQQKPGKAPKLLIYAASSLQSGVPSRFSGSGSGTDFTLTISSLQPEDFATYYCQQSVVAPLTFGQGTKVEIKR
B8: 346.31 (Fab, V domains shown)
VH: EVQLLESGGGLVQPGGSLRLSCAASGFTFSSYAMSWVRQAPGKGLEWVSSIEQMGWQTYYADSVKGRFTISRDNSKNTLYLQMNSLRAEDTAVYYCAKDIGGRSAFDYWGQGTLVTVSS
VL: DIQMTQSPSSLSASVGDRVTITCRASQSISSYLNWYQQKPGKAPKLLIYAASSLQSGVPSRFSGSGSGTDFTLTISSLQPEDFATYYCQQSVVAPLTFGQGTKVEIKR
B9: 346.39 (Fab, V domains shown)
VH: EVQLLESGGGLVQPGGSLRLSCAASGFTFSSYAMSWVRQAPGKGLEWVSSIEQMGWQTEYADSVKGRFTISRDNSKNTLYLQMNSLRAEDTAVYYCAKSAAAFDYWGQGTLVTVSS
VL: DIQMTQSPSSLSASVGDRVTITCRASQSISSYLNWYQQKPGKAPKLLIYAASSLQSGVPSRFSGSGSGTDFTLTISSLQPEDFATYYCQQSVVAPLTFGQGTKVEIKR
B10: ScFv Jagged 32 (scFv)
scFv: EVQLLESGGGLVQPGGSLRLSCAASGFTFSSYAMSWVRQAPGKGLEWVSSIEQMGWQTYYADSVKGRFTISRDNSKNTLYLQMNSLRAEDTAVYYCAKSAAAFDYWGQGTLVTVSSGGGGSGGGGSGGGGSTDIQMTQSPSSLSASVGDRVTITCRASQSISSYLNWYQQKPGKAPKLLIYAASLQSGVPSRFSGSGSGTDFTLTISSLQPEDFATYYCQQTVVAPLTFGQGTKVEIKR

Legend:
[1] = biological target: human Jagged 2-Fc (R&D Systems Cat #1726-JG-050) (human) (UniProt Q9Y219); test: ELISA: Jagged-Fc coated, purified IgG titrated, anti-human IgG (Fab specific)-HRP and TMB, A450
[2] = biological target: human Jagged 1-Fc (extracellular domain of human Jagged 1 fused to the Fc portion of human IgG1; R&D Systems Cat#1277-JG-050) (human) (UniProt P78504); test: as above
[3] = biological target: human Jagged 1-Fc (extracellular domain of human Jagged 1 fused to the Fc portion of human IgG1; R&D Systems Cat#1277-JG-050) (human) (UniProt P78504); test: competition ELISA: Notch 1-Fc coated, biotinylated Jagged 1-Fc with increasing antibody
[4] = biological target: human Jagged 1-Fc (extracellular domain of human Jagged 1 fused to the Fc portion of human IgG1; R&D Systems Cat#1277-JG-050) (human) (UniProt P78504); test: competition ELISA: human Notch 1-Fc coated, biotinylated human Jagged 1-Fc applied with rising antibody, streptavidin-HRP, A450
[5] = biological target: human Jagged 1-Fc (extracellular domain of human Jagged 1 fused to the Fc portion of human IgG1; R&D Systems Cat#1277-JG-050) (human) (UniProt P78504); test: phage display selection on human Jagged 1-Fc
[6] = biological target: rat Jagged 1-Fc (R&D Systems Cat #599-JG-100) (rat) (UniProt Q63722); test: phage ELISA, ligand coated
[7] = biological target: human Jagged 1-Fc (extracellular domain of human Jagged 1 fused to the Fc portion of human IgG1; R&D Systems Cat#1277-JG-050) (human) (UniProt P78504); test: phage ELISA, ligand coated

Binder | binding [5] | binding [6] | binding [7] | further results
B1 | – | – | – | binding [1]: binds; binding [2]: binds; binding [3]: binds
B2 | – | – | – | binding [4]: binds; binding [2]: binds; binding [3]: binds
B3 | binds | – | – | –
B4 | – | binds | binds | –
B5 | binds | – | – | –
B6 | – | – | binds | –
B7 | – | binds | binds | –
B8 | – | binds | binds | –
B9 | – | – | binds | –
B10 | binds | – | – | –
